According to patent US7884099B2 (priority 2007, dated 2011):
At least one compound was matched to its structure with a doubt left.

System: Wild-type and Genetically-Defined Resistant Strains of Bacteria
Experiment: Antibacterial activity against wild-type and genetically-defined resistant strains (overall statement on Table 1)
Assay type: cell-based
Conditions: summary of Table 1
Procedure: Representative compounds are assayed for antimicrobial activity as follows: Minimum Inhibitory Concentrations (MICs) against Staphylococcus aureus ATCC 29213, its isogenic derivative, and Escherichia coli ATCC 25922 were determined by the microbroth dilution method, as per NCCLS guidelines (National Committee for Clinical Laboratory Standards 2000).

Q: `CO[C@H]1/C=C/O[C@@]2(C)Oc3c(C)c(O)c4c(=O)c(c5oc6cc(N7CCC(N(C)C8([C@@H]9CCN(c%10c(F)cn%11c(=O)c(C(=O)O)cc(C%12CC%12)c%11c%10C)C9)CC8)CC7)cc(O)c6nc-5c4c3C2=O)NC(=O)/C(C)=C\C=C\[C@H](C)[C@H](O)[C@@H](C)[C@@H](O)[C@@H](C)[C@H](OC(C)=O)[C@@H]1C` [Example 1] was tested. Which “antibacterial activity (in words)” value did it give?
A: potent antibacterial activity
